Results published in article PMC10163288.
This is one part of the list.

B1: il10ra_site1_normal_mot_HHH_b1_05185_000000011_0001_22_39_H_._HHH_b1_04526_0002_0000200028_0000002_0 (protein)
chain: SSSSDEEIKRVSELFQRMSKLLEEGDHERVEELLEELKELAEEINDPYARLSAHFIEALLNSSSS
B2: il10ra_site1_normal_mot_HHH_b1_04065_000000255_0001_41_56_H_._HHH_b2_07924_0001_0000100001_0000001_0 (protein)
chain: SSSSSDEEREEAEELLEEAKEIDDERERSELLAKALRIATELRDRELARLVDRVAIRLYHSSSSS
B3: il10ra_site1_normal_mot_HHH_b1_03754_af2_000000016_0001_40_56_H_._HHH_b2_05518_0001_0000100006_0000001_0 (protein)
chain: SSSSSEEERYLELSLRFLRFLLEAGDERAARRFAHALLQLAERLNDEEVQEEVKKILEELSSSSS
B4: il10ra_site1_normal_mot_HHH_b1_05357_000000034_0001_23_39_H_._HHH_b1_06316_0001_0000500053_0000001_0_af2pred_0001 (protein)
chain: SSSSSDEEEREVEEILEEAEKIEDPEERSYVLTEAYALANRVKDPELKELVRRVAQELTSSSSSS
B5: il10ra_site1_sap_20_mot_HHH_b1_03763_000000209_0001_22_38_H_._75682a83c85cb44ccff1401ed1a83487_0001_1_0001_0000400017_0000002_0_0001_af2pred_0001 (protein)
chain: SSSSTEAEVIVRIYKEAVKAAEELGDERAAKLAIEAALLQLRRLGDEEAVERLEKLLEEVTSSSS
B6: il10ra_site1_normal_mot_HHH_b2_01397_000000078_0001_23_39_H_._HHH_b2_08075_0001_0000300026_0000002_0_af2pred_0001 (protein)
chain: SSSSDERVKLTLRFAEALAKHGDRRAVELLLRAARQLAERDGDEELEELIEEVEERVRELLSSSS
B7: il10ra_site1_sap_23_mot_39a7b8d0c4c3fc04bafbda6ce6101d3a_0001_1_af2_000000014_0001_34_48_H_._HHH_b2_06439_af2_0001_0000200006_0000001_0_0001 (protein)
chain: SSSSDEEQEEALRLSIEAFRLALRGNPEEARKLLEEALELAEELGDERLAEVIRILLETATSSSS
B8: il10ra_site1_sap_26_mot_HHH_b1_00103_000000293_0001_1_15_H_._HHH_b1_01986_0002_0000200014_0000002_0_0001_af2pred_0001 (protein)
chain: SEEEEELIEEASELAGVPPEEIERLLEAVKDVAGGDPEAIKRIVEAALRLIGDPVVEALLIALRR
B9: il10ra_site1_sap_25_mot_HHH_b2_01447_af2_000000258_0001_1_20_H_._HHH_b1_07840_0001_0000200009_0000001_0_0001_af2pred_0001 (protein)
chain: SSSDLEEEVEEIEKRLRELAEEGDEREFAQLLFRLLRLANEYNDEEASHLALKLAAEFLKKSSSS
B10: il10ra_site1_sap_26_mot_HHH_b2_08004_000000101_0001_1_17_H_._HHH_b2_05953_0001_0000600049_0000002_0_0001 (protein)
chain: SSSSSSEAEERVRELLEEAKHIDDPDEWYRLLKEAIELATENRDDEAIELVMEFNREAIHSSSSS
B11: il10ra_site1_sap_23_mot_HHH_b1_05797_000000014_0001_1_19_H_._HHH_b1_08212_0001_0000100006_0000002_0_0001_af2pred_0001 (protein)
chain: SSSSSSEDEERLELAIEFARRVSDPEVAEFLLRAAAQLAEKANNEELLEEIRRLLEELGSSSSSS
B12: il10ra_site1_sap_16_mot_HHH_b2_08127_af2_000000022_0001_1_18_H_._HHH_b1_04128_0001_0000200024_0000001_0_0001 (protein)
chain: SSSSSELEEQVERLLEEAEELRERGDPEEAIRVLLRAVRLAIRASNEELLQAVWRLVKQVSSSSS
B13: il10ra_site1_sap_25_mot_HHH_b2_04586_000000230_0001_1_16_H_._HHH_b2_04117_0001_0000400047_0000001_0_0001_af2pred_0001 (protein)
chain: SSSSSRVVELIRRIIELAREGNLEEAEELLEEVRRLAEERNDYVLEHIVESMERELEELKSSSSS
B14: il10ra_site1_normal_mot_HHH_b1_01563_af2_000000118_0001_40_54_H_._HHH_b1_07449_0001_0000100007_0000002_0 (protein)
chain: SSSSDSEELAQEAIEEAWELFQRGNREEAEKVLEEAIRELRELNDERQVRFLEFLLRAVRGSSSS
B15: il10ra_site1_normal_mot_HHH_b1_03574_000000194_0001_1_18_H_._HHH_b1_04549_0001_0000100007_0000002_0_af2pred_0001 (protein)
chain: SSSSDRLEEVQELLRRIAELMRRGDREEAQELLERAKELIEELGDLVLKAVLEHLERIVNSSSSS
B16: il10ra_site1_sap_23_mot_1c3c3e46dde0d4e4be3ec3dd9add6289_0001_000000096_0001_34_50_H_._HHH_b1_06969_af2_0001_0000400009_0000001_0_0001 (protein)
chain: SSSSDEEVVELAFEAVRLLAEGDSEEAQKVAEEALELAEELGDEELRRYIEILIHFIRSQSSSSS
B17: il10ra_site1_normal_mot_HHH_b1_07768_000000240_0001_18_35_H_._HHH_b2_01511_0001_0000300037_0000001_0 (protein)
chain: SSSSSLEFSVKFLLEHVEELLENGDKEKAEHQLEALLEHLKQAGDEELLREVEELLEEVRKSSSS
B18: il10ra_site1_normal_mot_HHH_b2_00984_000000042_0001_1_20_H_._HHH_b2_01507_0001_0000100004_0000001_0 (protein)
chain: SSSSDEEVRREVEELLEEAEEIDDPRERNRLLLEATQIALRNNDPELLQLVWEIIKRLARSSSSS
B19: il10ra_site1_sap_21_mot_HHH_b1_03314_af2_000000278_0001_42_55_H_._HHH_b2_04349_0001_0000200013_0000002_0_0001 (protein)
chain: SSSSSSSDERMLRAAEALLKQGDEENARLSLRFALALARATNDEELAEEIRELLEELGSSSSSSS
B20: il10ra_site1_normal_mot_HHH_b1_06914_000000280_0001_1_18_H_._HHH_b1_02678_0001_0000300023_0000002_0 (protein)
chain: SSSSDRTQEVYELLRRAAEARANGNPEEAEELLEEARRLAEEANSELFRIQIEFLERAVKQSSSS
B21: il10ra_site1_normal_mot_8756ee2cf497b5429c717dfc0c0bcfd6_0001_000000186_0001_1_13_H_._HHH_b1_07051_af2_0001_0000100011_0000001_0_af2pred_0001 (protein)
chain: SSSTKVEEVAEILREAAELLRKGDKEEAKKLVEEAEELARENNNLTLEAIIRYLEEIIERLSSSS
B22: il10ra_site1_sap_15_mot_HHH_b2_00230_000000227_0001_1_19_H_._HHH_b2_04273_af2_0001_0000200001_0000001_0_0001 (protein)
chain: SSSSSSEAERLVEELVEELNLSEELKEALEVLAKILEIAGFSEEEAQRALEYFVEHQERISSSSS
B23: il10ra_site1_sap_27_mot_HHH_b2_02736_000000092_0001_22_38_H_._HHH_b2_04981_af2_0001_0000200015_0000001_0_0001 (protein)
chain: SSSSSDLAEEARKLIEELIELSEKGDEEELRRLLEEAEEEAERRNDDVIRAVIETLLELLSSSSS
B24: il10ra_site1_normal_mot_39ab2cb694c8b9c1dc7e65c0d672c93e_0001_000000036_0001_53_65_H_._HHH_b2_04624_af2_0001_0000200020_0000002_0 (protein)
chain: SSSSSDIEEELEKLIEKAEELLENGNPREAARVAAEASQFAMELGNAELLQEIWELAKRISSSSS

Each binder was assayed against il10ra, Q13651 (assay: yeast display titration).

| Binder | apparent Kd |
| --- | --- |
| B1 | inactive: no binding seen |
| B2 | inactive: no binding seen |
| B3 | inactive: no binding seen |
| B4 | inactive: no binding seen |
| B5 | inactive: no binding seen |
| B6 | inactive: no binding seen |
| B7 | inactive: no binding seen |
| B8 | inactive: no binding seen |
| B9 | inactive: no binding seen |
| B10 | inactive: no binding seen |
| B11 | inactive: no binding seen |
| B12 | inactive: no binding seen |
| B13 | inactive: no binding seen |
| B14 | inactive: no binding seen |
| B15 | inactive: no binding seen |
| B16 | inactive: no binding seen |
| B17 | inactive: no binding seen |
| B18 | inactive: no binding seen |
| B19 | inactive: no binding seen |
| B20 | inactive: no binding seen |
| B21 | inactive: no binding seen |
| B22 | inactive: no binding seen |
| B23 | inactive: no binding seen |
| B24 | inactive: no binding seen |

Random excerpt: two records from the list, in no set order.

| Binder | apparent Kd |
| --- | --- |
| B7 | inactive: no binding seen |
| B16 | inactive: no binding seen |
